# Test results reported in US20110085986A1, “Diagnosis and treatment of epithelial cancers using labeled/conjugated progastrin peptides” (priority 2009, published 2011).
# Amino acid sequences for entries named in this document (tags omitted).
# UniProt P07355, whole entry, species assumed: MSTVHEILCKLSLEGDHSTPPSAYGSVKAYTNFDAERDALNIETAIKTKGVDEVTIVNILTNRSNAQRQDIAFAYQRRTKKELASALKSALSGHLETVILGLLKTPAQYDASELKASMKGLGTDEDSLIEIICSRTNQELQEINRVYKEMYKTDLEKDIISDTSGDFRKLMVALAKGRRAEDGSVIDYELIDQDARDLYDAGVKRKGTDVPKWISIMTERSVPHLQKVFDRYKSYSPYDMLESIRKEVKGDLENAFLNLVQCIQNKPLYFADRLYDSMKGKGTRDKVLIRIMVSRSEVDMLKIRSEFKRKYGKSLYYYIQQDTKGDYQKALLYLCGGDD
# Part of at least one peptide drawing is inferred or uncertain, most often the ends. Peptide text beside a SMILES is read from it. * marks the point of attachment. FITC = O=C1OC2(c3ccc(O)cc3Oc3cc(O)ccc32)c2ccc(NC(=S)*)cc21
# Columns and labels:
# Anx A2 = Anx A2 (Homo sapiens, UniProt P07355); test: Binding affinity of FITC labeled PG26 for Anx A2
# HEK-293 = test: Endocytotic internalization of FITC-PG26 (chase experiment); assay type: cell-based
compound,measurement,setting,value
CSCC[C@H](NC(=O)[C@H](Cc1c[nH]c2ccccc12)NC(=O)CNC(=O)[C@H](Cc1ccc(O)cc1)NC(=O)[C@H](C)NC(=O)[C@H](CCC(=O)O)NC(=O)[C@H](CCC(=O)O)NC(=O)[C@H](CCC(=O)O)NC(=O)[C@H](CCC(=O)O)NC(=O)[C@H](CCC(=O)O)NC(=O)[C@H](CC(C)C)NC(=O)[C@H](Cc1c[nH]c2ccccc12)NC(=O)[C@@H]1CCCN1C(=O)CNC(=O)[C@H](CCC(N)=O)NC(=S)Nc1ccc2c(c1)C(=O)OC21c2ccc(O)cc2Oc2cc(O)ccc21)C(=O)N[C@@H](CC(=O)O)C(=O)N[C@@H](Cc1ccccc1)C(=O)NCC(=O)N[C@@H](CCCNC(=N)N)C(=O)N[C@@H](CCCNC(=N)N)C(=O)N[C@@H](CO)C(=O)N[C@@H](C)C(=O)N[C@@H](CCC(=O)O)C(=O)N[C@@H](CC(=O)O)C(=O)N[C@@H](CCC(=O)O)C(=O)N[C@@H](CC(N)=O)C(=O)O [FITC-PG26] ({FITC}-QGPWLEEEEEAYGWMDFGRRSAEDEN-OH; N-terminus and C-terminus assumed),binding affinity for Anx A2 compared with rhPG,Anx A2,equivalent
same,time to strong peri-nuclear co-localization with Anx A2,"HEK-293; after labeling, chase experiment, FIG. 7",≤ 15 min
same,time to apparent degradation of the peptide,HEK-293; suggesting lysosomal degradation,30 to 60 min
